# Measured values as given in the supplement of paper PMC3334620.
# Whole data set: some 33,000 sequences, median “E-score (-0.5 to 0.5)” near -0.0059, cut for the highest 2% near 0.26. Some of the results follow.
# Target: T1, Cin5 (UniProt P40917)
# T1 sequence: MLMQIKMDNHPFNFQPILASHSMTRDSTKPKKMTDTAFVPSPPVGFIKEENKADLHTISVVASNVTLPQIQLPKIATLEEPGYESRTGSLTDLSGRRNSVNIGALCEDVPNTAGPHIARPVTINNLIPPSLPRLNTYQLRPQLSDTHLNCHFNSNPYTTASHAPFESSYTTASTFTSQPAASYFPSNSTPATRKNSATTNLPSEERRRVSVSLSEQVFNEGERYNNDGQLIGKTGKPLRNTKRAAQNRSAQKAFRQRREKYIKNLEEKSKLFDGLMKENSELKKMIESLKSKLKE
# Assay: PBM E-score (8-mer binding enrichment) (E-score (-0.5 to 0.5)); higher = stronger / more preferred TF binding
# Settings: protein concentration: 100 nM; construct: GST-full length
# In short: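 Each ungapped eight-base word and its reverse complement, pooled, received an E-score from the Universal PBM Analysis Suite. Underlying scans, normalised with masliner, recorded fluorescent anti-GST bound to GST-tagged yeast transcription factors. These were applied at about 100-200 nM to universal all-10-mer Agilent arrays double-stranded by primer extension.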
row,Sequence,PBM E-score
1,AGACGCGC,-0.0231
2,CCAGGCGG,-0.0751
3,CGACCCGA,-0.189
4,AAGAATGT,0.119
5,AGGCGGTA,-0.182
6,CGAGCTCA,-0.00639
7,CAGGTAAG,0.0626
8,GTAAGCGA,0.383
9,CCATAAAC,-0.114
10,TCCGAGAA,0.13
11,GAATGACA,0.00808
12,AATAGCGT,0.1
13,CATACACG,0.0152
14,CTGCAGGA,0.068
15,CCGCAGAG,-0.244
16,AACACGAG,0.105
17,ACTGATAT,0.128
18,AGCTAACC,-0.0234
19,AAGCATGG,-0.0876
20,ACACAAAT,0.144
21,ATGATGCA,0.136
22,ATTGCATA,0.237
23,CGATAACA,0.0831
24,CAACACTG,0.0247
25,CGCTACCC,-0.181

row,Sequence,PBM E-score
1,AAACTGCC,0.0146
2,AGTACAAA,0.191
3,CGGCGATA,0.0501
4,CGTTCAGA,-0.229
5,ACATGTAG,0.278
6,GCCTGGAA,0.0515
7,ATATAGCA,0.0799
8,GCTACACC,-0.218
9,ACACGCGG,-0.0884
10,CAAACCAA,0.161
11,AAGTATCA,0.08
12,ATCGTTGG,-0.0306
13,AAGATTAC,0.255
14,GCGATAGA,0.0484
15,ACCTGAGG,-0.154
16,GATCGGAC,0.0225
17,AGGTGGTC,-0.0846
18,ATATGCAC,0.146
19,GTTACCCA,-0.206
20,GGATTGAC,0.049
21,CCGCGAAA,0.0021
22,ACTTAATA,0.26
23,AGCCGTGC,-0.304
24,CAAAGCTA,-0.0452
25,ACGCCAAA,-0.175

# Part of the list above, bar-delimited:
row | Sequence | PBM E-score
3 | CGACCCGA | -0.189
5 | AGGCGGTA | -0.182
17 | ACTGATAT | 0.128
16 | GATCGGAC | 0.0225

# Following part.

row,Sequence,PBM E-score
1,CACTATGC,0.048
2,AGAATCGC,-0.0275
3,GTCGTACA,0.0969
4,CCACACGG,-0.0184
5,ATGCGGAA,0.0572
6,AACACTAC,0.127
7,CGGCACAG,-0.063
8,GAGATTTA,-0.0654
9,GCATTTCC,0.0946
10,GTCCAGGA,-0.144
11,TTCACCAA,-0.00088
12,AGTATCAC,0.0484
13,GATCTTCC,-0.173
14,AATCACGG,0.238
15,GACGATAA,0.108
16,CTTAATGA,0.0487
17,CCGACTAG,-0.101
18,AAATTTAT,0.141
19,AGCGGCAT,0.167
20,CCCGTCAC,-0.153
21,ATCGATGC,0.168
22,AGAAGCCA,0.0129
23,ATGAGGAG,-0.13
24,GATGCGCA,0.0645
25,GGCGGTAC,-0.0508

row,Sequence,PBM E-score
1,ATGTGTGG,0.0509
2,TCAGCGCA,0.00579
3,ACATATTA,0.266
4,CTGGTAAG,-0.00442
5,AAGAGGAA,0.0137
6,AGGTTTGA,0.014
7,ACTCGTTA,-0.0616
8,ACAAATAT,0.23
9,GGAGCGTA,0.00302
10,AGACAACA,0.0664
11,TCTCTCAA,0.18
12,AAACTAAC,0.21
13,AAGACACC,-0.0717
14,ATTAGTCC,0.168
15,GATTCCCA,-0.0826
16,AAGCGTTC,-0.0382
17,AGCATCCT,0.0649
18,AGACATCT,-0.122
19,GGTGTAGA,-0.0858
20,AGCACCGG,-0.145
21,ATCTCCAC,-0.0553
22,AATAAAAT,0.129
23,GCCTGGCA,-0.258
24,ATGCAATA,0.135
25,GCAACAAC,0.00333

row,Sequence,PBM E-score
1,CGAAATAA,0.23
2,TCACTTCA,-0.0777
3,AAAGCTTA,0.147
4,ACAACCAA,0.0847
5,GAGCATAC,-0.133
6,CGAATTCC,0.0759
7,AGTCCCAC,-0.0661
8,GAACCCCC,-0.49
9,AATAGTCC,-0.0671
10,GGGAGGAC,-0.179
11,ACCGAAGT,0.114
12,CGGACACA,-0.106
13,ATGCCTCC,-0.068
14,CCCTCAGA,-0.131
15,CGCTTGCC,-0.163
16,CACGGACG,-0.0169
17,TTAGAGAA,-0.212
18,AGTAAACC,-0.0179
19,CGACGTCA,-0.0114
20,CAATTAAA,0.202
21,AATTTCCT,0.0794
22,AGACTATA,0.157
23,CAGGATCC,0.00579
24,ACGACTGG,-0.181
25,CCTGCCTC,-0.176

row,Sequence,PBM E-score
1,CCCGTACG,-0.203
2,CCTTCAAC,0.0125
3,CGGGGCAA,0.0365
4,CGTTTCAC,-0.106
5,ACACGAAC,-0.00907
6,CACTAACA,0.127
7,ATCGTCAT,0.244
8,AGTGAGCC,0.0445
9,GATCAAAC,0.0848
10,AGTTGACG,0.126
11,GAAGCCTA,-0.0804
12,TCAGCCCA,0.0892
13,CATCACTC,-0.0607
14,GCTTGGCC,-0.103
15,CTAGAATC,-0.0115
16,CTTTAAAG,-0.249
17,CATGTCAG,0.0592
18,CTGTCACC,-0.183
19,TGCCTAAA,-0.0398
20,CAACGCTG,-0.104
21,AGCGTTTA,-0.0523
22,AGAATCTG,-0.00702
23,GCTAAAAA,-0.154
24,CACGCATA,-0.0145
25,ACGTCTTA,-0.0299

# In another format: entries from further up.
row	Sequence	PBM E-score
9	GGAGCGTA	0.00302
10	AGACAACA	0.0664
11	TCTCTCAA	0.18
12	AAACTAAC	0.21
13	AAGACACC	-0.0717

# Pulled one by one from above (2):
row,Sequence,PBM E-score
4,CGTTTCAC,-0.106
23,GCTAAAAA,-0.154

# (listing goes on)

row,Sequence,PBM E-score
1,CAGAGTAC,-0.137
2,CGCTGCCG,-0.211
3,TAACTAAA,0.0806
4,GACGGGCC,-0.315
5,CCGCGGCC,-0.0807
6,ATTAGGTA,0.271
7,GCGCCGCA,0.0767
8,GCGCATAA,0.187
9,ATCTCCCA,-0.0117
10,ATCTTACC,-0.0356
11,GCATAGGA,5e-05
12,ACTAGGTG,-0.15
13,GTCCGCTA,-0.05
14,GAAGTGAA,0.202
15,AGCGCCCA,-0.243
16,CCGGTCAG,-0.0737
17,ATCCGGTC,-0.101
18,GTCCATAA,-0.0763
19,AATATCCT,0.0469
20,ACTGCAAC,-0.0484
21,GCCTAGCA,-0.314
22,CATCTAAA,0.0623
